Test results taken from PMC8869655, “Identification of the Kinase-Substrate Recognition Interface between MYPT1 and Rho-Kinase” (Biomolecules, 2022).
These are yes or no findings as the source states them, for the method shown. Binding seen in cells or lysates may run through a third protein. For part of these data: Binding calls can cover weak binding; strength is not graded here. Where a sequence is shown, tags or fusion partners need not be part of it.

Assays:
Assay in all cases: pull-down; GST-MYPT1 fragment and GFP-kinase fragment co-transfected in COS7 cells; lysate incubated with Glutathione Sepharose beads 1 h at 4 °C in 20 mM Tris-HCl pH 7.5, 1 mM EDTA, 1 mM DTT, 50 mM NaCl, 0.5% NP-40; washed three times; immunoblot with anti-GST or anti-GFP
[1] = biological target: T1, GST-MYPT1 N-terminal fragment (1–300 aa) (rat) (UniProt Q10728)
T1 sequence: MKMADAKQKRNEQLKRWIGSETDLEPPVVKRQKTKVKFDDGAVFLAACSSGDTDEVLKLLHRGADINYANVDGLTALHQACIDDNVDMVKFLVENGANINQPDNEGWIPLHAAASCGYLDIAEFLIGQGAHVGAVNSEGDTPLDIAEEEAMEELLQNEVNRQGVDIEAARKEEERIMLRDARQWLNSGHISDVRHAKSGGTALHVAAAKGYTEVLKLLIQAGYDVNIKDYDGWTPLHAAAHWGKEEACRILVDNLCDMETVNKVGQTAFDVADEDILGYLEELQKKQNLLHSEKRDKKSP

[2] = biological target: T2, GST-MYPT1 central fragment (296–597 aa) (rat) (UniProt Q10728)
T2 sequence: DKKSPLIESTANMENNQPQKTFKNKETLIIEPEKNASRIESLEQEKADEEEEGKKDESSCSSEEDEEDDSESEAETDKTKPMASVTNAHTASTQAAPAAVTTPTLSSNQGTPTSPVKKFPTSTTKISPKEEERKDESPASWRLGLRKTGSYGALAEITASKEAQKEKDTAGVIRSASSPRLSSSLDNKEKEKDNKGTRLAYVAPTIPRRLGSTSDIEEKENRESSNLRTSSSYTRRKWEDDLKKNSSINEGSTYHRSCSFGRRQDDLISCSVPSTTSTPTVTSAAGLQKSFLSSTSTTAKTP

[3] = biological target: T3, GST-MYPT1-758–868 aa-854A/855A (rat) (UniProt Q10728)
T3 sequence: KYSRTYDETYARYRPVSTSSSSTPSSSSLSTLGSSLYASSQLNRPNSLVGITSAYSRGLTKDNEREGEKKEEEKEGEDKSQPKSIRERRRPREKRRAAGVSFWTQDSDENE

binding [1]: no binding
binding [2]: no binding
binding [3]: binds
Substance: GFP-Rho-kinase-cat-L (6–553 aa, long form of catalytic fragment) (bovine) (domain or fragment)
